Some entries share one result that the patent states for a list of compounds.
Tested on: U2OS cells
Assay: Zinc imaging assay (DA-ZP1 fluorescence) of ionophore activity in U2OS cells
Assay type: cell-based
Conditions: DA-ZP1, comparison with known ionophores
Description: A number of bispicolyl-based Zn^II-chelators were synthesized with increasing size at the ortho-position of phenolic OH by a one-step reductive amination between bispicolyl-amine and commercially available 3-substituted salicylaldehydes. Applicants examined the ionophore activity of bispicolyl analogs with methyl (Me, 2), isopropyl (iPr, 3), and tert-butyl (tBu, 4) substitutions (FIG. 1A). […] [13] The cells were first treated with ZnCl2 and ionophore candidates followed by DA-ZP1 treatment and fluorescence measurement.
Applicants experimentally determined the ionophore activity of these silyl-based compounds using the aforementioned DAZ-P1 assay in U2OS cells.
Applicants also determined metal-ion interference of the silyl-based ionophores with focused efforts on 8. Applicants designed a competition assay wherein Applicants pre-treated equimolar amounts of various metal ions, Mg^II, Ca^II, Mn^II, Fe^II, and Na^I, with 10 μM of Zn^II for 1 hour before treatment with DA-ZP1. […]
In a 96-well plate, 20,000 U2OS cells were plated per well and cultured for 24 h in the incubator set to 37° C. with 5% CO2. […] The cells were immediately imaged using a high-content fluorescence microscope (Operetta Phenix) in both the DAPI and FITC channels at 20× magnification. Images were analyzed using the Harmony software, and data were plotted using GraphPad Prism 9.

SMILES | concentration at which ionophore activity is displayed [µM]
CCCCN(CCCC)C(=S)SSC(=S)N(CCCC)CCCC [Tetrabutylthiuram disulfide, tetrabutylthiuram disulfide, reference compound] | > 40
Oc1c(I)cc(Cl)c2cccnc12 [clioquinol, reference compound] | > 40

Reference: patent US20250206704A1, “ENGINEERED IONOPHORES FOR TRANSPORT OF METAL IONS” (The Brigham and Women's Hospital, Inc., priority 2022, published 2025)
